# Source: the supplement of paper PMC6411743
# Protein sequences, listed by entry. Tags and fused reporters are not part of them. Lines headed by an entry give the natural chain unless they say otherwise; changes in a name come on top.
# UniProt Q93052: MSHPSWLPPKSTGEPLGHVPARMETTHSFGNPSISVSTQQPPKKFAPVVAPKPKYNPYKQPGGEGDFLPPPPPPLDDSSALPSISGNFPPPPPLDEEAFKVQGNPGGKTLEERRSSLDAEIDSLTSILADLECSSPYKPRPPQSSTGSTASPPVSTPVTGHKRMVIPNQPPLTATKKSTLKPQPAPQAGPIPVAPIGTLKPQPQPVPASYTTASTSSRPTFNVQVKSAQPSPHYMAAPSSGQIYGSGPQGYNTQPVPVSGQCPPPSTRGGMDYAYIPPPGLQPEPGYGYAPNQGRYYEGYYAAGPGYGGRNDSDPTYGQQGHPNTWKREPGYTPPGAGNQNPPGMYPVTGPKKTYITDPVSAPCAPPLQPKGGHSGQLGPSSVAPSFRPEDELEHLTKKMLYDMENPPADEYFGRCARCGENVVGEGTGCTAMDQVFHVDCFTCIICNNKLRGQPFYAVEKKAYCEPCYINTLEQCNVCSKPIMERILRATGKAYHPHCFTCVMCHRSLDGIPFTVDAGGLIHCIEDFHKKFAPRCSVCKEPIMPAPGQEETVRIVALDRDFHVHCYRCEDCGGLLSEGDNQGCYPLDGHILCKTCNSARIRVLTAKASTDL
# UniProt Q96AQ6: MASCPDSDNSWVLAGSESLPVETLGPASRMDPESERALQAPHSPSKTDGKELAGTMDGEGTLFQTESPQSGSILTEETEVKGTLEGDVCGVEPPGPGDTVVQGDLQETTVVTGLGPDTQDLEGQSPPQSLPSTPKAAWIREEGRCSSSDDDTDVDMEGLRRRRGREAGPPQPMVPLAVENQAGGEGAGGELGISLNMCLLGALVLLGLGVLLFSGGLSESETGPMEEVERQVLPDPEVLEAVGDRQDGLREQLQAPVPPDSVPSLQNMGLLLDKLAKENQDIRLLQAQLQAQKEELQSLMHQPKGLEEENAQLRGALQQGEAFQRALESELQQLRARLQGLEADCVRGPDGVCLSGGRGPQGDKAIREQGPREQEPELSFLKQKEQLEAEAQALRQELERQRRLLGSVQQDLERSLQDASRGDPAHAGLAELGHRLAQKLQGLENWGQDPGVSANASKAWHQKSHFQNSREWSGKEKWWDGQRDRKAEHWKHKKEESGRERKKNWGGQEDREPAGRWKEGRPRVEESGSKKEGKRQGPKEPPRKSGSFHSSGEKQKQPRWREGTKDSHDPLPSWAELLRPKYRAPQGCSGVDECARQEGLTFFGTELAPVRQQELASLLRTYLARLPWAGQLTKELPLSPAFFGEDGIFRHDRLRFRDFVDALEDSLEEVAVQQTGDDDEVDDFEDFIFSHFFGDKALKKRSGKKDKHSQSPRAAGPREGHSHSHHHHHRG
# UniProt Q96J01: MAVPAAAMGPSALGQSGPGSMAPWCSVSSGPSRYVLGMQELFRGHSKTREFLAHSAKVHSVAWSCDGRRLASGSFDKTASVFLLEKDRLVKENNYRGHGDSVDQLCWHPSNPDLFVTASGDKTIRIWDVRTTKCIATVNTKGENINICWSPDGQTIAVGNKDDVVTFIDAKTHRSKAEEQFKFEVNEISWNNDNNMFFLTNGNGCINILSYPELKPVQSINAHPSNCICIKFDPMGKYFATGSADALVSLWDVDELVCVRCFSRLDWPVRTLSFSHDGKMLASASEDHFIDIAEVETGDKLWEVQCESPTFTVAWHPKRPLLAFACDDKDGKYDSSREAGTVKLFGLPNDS
# UniProt Q8WVZ9: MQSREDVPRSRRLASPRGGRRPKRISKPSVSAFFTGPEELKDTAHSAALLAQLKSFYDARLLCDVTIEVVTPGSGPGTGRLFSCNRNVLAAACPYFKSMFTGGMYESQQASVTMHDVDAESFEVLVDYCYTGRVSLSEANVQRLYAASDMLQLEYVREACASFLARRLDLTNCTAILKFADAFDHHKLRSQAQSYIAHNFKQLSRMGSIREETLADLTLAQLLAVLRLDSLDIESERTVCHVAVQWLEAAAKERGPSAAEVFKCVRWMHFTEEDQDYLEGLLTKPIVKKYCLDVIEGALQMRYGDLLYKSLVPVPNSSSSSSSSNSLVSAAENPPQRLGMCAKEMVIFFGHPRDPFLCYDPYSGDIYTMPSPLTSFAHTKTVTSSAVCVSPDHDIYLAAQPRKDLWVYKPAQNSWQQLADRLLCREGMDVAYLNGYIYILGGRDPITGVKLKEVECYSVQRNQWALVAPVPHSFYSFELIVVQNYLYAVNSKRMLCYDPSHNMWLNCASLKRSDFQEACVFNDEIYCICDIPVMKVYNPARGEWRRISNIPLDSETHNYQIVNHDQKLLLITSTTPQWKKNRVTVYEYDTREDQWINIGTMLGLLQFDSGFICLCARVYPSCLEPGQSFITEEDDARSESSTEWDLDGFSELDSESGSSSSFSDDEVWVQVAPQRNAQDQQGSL
# UniProt Q96GX5: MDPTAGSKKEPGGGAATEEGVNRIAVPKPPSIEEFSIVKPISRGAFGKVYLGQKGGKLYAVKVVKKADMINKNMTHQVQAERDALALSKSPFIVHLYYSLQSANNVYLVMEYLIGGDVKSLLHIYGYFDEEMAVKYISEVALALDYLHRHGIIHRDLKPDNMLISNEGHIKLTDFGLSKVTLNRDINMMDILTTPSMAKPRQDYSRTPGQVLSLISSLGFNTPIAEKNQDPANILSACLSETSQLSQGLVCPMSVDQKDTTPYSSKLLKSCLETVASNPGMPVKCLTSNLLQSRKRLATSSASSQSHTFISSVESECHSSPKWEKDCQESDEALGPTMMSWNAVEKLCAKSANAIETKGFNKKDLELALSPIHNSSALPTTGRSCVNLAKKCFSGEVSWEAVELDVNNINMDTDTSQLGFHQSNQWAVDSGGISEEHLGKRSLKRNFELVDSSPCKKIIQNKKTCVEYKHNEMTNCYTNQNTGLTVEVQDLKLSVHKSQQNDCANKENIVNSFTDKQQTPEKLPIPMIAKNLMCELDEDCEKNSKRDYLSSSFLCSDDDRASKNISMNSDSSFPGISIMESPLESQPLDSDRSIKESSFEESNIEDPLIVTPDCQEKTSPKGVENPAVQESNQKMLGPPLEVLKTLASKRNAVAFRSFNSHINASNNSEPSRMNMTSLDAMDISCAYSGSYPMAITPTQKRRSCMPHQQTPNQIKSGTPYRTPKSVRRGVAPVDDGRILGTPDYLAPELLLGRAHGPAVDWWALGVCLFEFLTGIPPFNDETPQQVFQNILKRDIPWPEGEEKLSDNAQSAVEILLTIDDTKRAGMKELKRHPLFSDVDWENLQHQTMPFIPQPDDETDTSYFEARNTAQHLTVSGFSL
# UniProt Q8WXG6, whole entry, looked up: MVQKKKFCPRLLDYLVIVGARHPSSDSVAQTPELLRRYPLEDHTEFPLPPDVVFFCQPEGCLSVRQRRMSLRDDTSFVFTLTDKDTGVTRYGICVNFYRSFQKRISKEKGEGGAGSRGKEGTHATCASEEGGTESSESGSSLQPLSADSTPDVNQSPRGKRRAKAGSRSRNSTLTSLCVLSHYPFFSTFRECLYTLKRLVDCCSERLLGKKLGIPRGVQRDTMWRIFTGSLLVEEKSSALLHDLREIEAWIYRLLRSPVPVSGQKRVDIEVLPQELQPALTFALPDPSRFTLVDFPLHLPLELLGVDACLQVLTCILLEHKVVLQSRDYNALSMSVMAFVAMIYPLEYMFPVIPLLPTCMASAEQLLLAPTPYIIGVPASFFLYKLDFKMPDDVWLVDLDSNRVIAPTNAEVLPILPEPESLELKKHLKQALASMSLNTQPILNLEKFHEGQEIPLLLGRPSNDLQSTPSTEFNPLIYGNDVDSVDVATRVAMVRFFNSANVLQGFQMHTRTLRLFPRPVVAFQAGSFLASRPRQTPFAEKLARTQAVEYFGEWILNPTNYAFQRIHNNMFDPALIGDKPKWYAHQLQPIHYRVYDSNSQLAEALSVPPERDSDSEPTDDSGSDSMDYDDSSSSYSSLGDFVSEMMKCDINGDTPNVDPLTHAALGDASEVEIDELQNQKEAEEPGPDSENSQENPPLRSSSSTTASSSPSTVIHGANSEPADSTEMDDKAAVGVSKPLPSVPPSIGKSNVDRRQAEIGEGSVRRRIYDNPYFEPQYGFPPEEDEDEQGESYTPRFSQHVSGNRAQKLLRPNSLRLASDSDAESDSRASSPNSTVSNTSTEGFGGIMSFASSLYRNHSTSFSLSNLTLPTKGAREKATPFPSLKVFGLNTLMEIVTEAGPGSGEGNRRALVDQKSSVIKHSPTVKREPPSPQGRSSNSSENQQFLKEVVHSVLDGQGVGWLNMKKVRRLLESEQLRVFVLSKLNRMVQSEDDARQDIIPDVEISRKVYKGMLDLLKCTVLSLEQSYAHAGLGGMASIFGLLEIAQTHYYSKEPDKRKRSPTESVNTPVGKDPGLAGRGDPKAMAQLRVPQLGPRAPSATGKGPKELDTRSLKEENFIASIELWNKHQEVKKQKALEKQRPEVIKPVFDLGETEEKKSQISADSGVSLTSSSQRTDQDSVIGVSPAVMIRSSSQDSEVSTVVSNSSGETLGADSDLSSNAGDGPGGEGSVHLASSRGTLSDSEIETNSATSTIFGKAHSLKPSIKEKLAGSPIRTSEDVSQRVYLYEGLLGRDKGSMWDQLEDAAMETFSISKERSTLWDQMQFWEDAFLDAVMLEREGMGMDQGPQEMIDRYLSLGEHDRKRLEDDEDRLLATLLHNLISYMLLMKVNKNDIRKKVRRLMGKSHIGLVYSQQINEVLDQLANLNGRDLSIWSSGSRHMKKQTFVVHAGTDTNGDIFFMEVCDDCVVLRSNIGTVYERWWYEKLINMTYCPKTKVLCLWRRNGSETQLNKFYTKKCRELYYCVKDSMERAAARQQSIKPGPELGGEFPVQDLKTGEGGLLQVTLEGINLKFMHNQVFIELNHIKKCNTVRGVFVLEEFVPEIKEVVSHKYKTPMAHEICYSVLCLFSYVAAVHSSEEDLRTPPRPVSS
# UniProt Q96JH7: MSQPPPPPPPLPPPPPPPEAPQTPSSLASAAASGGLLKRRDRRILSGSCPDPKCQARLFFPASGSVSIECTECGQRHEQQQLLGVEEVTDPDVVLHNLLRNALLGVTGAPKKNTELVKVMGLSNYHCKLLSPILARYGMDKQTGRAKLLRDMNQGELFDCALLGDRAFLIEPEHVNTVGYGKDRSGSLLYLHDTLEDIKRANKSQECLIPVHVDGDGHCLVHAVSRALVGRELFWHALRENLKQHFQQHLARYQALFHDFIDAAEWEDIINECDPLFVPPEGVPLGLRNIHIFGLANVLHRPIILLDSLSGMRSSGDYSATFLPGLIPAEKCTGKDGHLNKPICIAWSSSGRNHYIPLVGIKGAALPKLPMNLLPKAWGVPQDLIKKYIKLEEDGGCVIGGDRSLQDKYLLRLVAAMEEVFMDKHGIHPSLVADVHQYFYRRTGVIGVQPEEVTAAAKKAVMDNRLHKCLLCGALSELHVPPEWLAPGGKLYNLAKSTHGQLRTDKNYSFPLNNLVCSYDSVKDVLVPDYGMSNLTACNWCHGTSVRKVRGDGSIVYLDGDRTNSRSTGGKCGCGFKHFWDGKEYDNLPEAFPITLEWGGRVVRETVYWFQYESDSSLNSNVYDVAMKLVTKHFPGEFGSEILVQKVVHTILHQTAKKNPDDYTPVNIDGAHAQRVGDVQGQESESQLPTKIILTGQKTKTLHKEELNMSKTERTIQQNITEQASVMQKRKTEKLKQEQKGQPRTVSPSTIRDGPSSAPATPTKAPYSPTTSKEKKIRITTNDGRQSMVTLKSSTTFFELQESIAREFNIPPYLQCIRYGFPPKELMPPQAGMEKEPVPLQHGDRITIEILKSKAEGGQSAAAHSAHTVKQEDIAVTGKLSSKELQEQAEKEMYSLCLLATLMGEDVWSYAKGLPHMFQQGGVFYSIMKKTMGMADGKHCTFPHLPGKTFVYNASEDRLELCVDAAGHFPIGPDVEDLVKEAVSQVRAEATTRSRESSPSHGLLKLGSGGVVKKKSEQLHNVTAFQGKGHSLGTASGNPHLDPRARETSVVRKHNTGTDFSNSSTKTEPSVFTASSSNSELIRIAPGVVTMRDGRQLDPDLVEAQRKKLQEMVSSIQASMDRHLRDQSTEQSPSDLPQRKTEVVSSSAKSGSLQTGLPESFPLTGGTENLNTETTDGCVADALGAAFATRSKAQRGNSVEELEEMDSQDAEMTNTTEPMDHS
# UniProt Q96BN2: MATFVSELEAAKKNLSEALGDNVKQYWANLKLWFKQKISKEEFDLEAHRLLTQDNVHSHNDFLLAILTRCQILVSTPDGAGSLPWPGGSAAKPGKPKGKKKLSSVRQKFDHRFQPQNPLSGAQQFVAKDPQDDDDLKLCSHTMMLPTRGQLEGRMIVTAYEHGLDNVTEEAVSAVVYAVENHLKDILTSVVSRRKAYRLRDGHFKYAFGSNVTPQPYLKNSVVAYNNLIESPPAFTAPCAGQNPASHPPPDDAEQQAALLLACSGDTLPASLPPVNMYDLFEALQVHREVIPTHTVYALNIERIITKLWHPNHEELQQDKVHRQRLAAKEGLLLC
# UniProt Q96DA6: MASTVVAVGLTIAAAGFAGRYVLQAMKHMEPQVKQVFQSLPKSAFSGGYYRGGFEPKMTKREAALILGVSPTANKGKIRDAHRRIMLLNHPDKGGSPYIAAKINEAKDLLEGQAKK
# ± gives the standard deviation of the averaged measurements. The list shows a part of the results.
# Compound: Nc1nc2c(ncn2[C@@H]2O[C@H](COP(=O)(O)OP(=O)(O)OP(=O)(O)O)[C@@H](O)[C@H]2O)c(=O)[nH]1 [guanosine triphosphate]
# Assay: NP40-soluble protein abundance relative to vehicle (solubility fold change) (ratio); higher = more soluble protein in presence of GTP
# How it was run: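 Eight concentrations, 0.1 to 10 mM, were tested on Jurkat crude lysate for 10 min at room temperature and then 3 min at 37 °C, in three independent experiments. The lysate was solubilised with 0.8% NP40 and benzonase, ultracentrifuged, and the supernatant TMT-labelled for LC-MS/MS. Each value is the fold change against the detergent-processed vehicle in its own replicate, from vsn-normalised intensities.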
Target,NP40-soluble protein abundance (concentration: 0.1mM),NP40-soluble protein abundance (concentration: 0.5mM),NP40-soluble protein abundance (concentration: 1mM),NP40-soluble protein abundance (concentration: 2mM),NP40-soluble protein abundance (concentration: 4mM),NP40-soluble protein abundance (concentration: 6mM),NP40-soluble protein abundance (concentration: 8mM),NP40-soluble protein abundance (concentration: 10mM)
UniProt Q8WUF8 and related entries,1.03 ± 0.14,1.03 ± 0.051,0.978 ± 0.14,1 ± 0.044,0.966 ± 0.028,1.01 ± 0.014,0.959 ± 0.021,0.99 ± 0.023
UniProt Q92804 and related entries,0.976 ± 0.03,1.048 ± 0.0095,1.18 ± 0.09,1.35 ± 0.14,1.56 ± 0.22,1.73 ± 0.28,2.08 ± 0.35,2.59 ± 0.54
SMARCD1 (UniProt Q96GM5),1.06 ± 0.036,1.11 ± 0.065,1.09 ± 0.089,1.18 ± 0.16,1.18 ± 0.17,1.18 ± 0.19,1.15 ± 0.18,1.16 ± 0.17
STYX (UniProt Q8WUJ0),1.07 ± 0.13,0.903 ± 0.12,0.962 ± 0.043,0.88 ± 0.024,0.826 ± 0.092,0.869 ± 0.16,0.966 ± 0.047,0.876 ± 0.082
UniProt Q93052 and related entries,0.985 ± 0.047,0.946 ± 0.086,0.944 ± 0.072,0.906 ± 0.071,0.884 ± 0.063,0.896 ± 0.081,0.906 ± 0.083,0.901 ± 0.09
UniProt Q96AQ6 and related entries,0.977 ± 0.073,0.935 ± 0.11,0.945 ± 0.056,0.961 ± 0.096,0.997 ± 0.048,0.968 ± 0.098,0.996 ± 0.061,1.02 ± 0.12
UniProt Q8WVQ1 and related entries,0.964 ± 0.072,0.96 ± 0.081,0.9177 ± 0.0053,0.908 ± 0.035,0.929 ± 0.079,0.898 ± 0.026,0.918 ± 0.11,0.927 ± 0.097
UniProt Q92600 and related entries,0.829 ± 0.1,0.907 ± 0.02,0.952 ± 0.086,1.1 ± 0.23,1.21 ± 0.43,1.37 ± 0.26,1.07 ± 0.014,1.52 ± 0.37
THOC3 (UniProt Q96J01),1.06 ± 0.058,1.12 ± 0.091,1.09 ± 0.1,1.2 ± 0.16,1.31 ± 0.14,1.38 ± 0.14,1.35 ± 0.1,1.31 ± 0.13
KBTBD7 (UniProt Q8WVZ9),1.15 ± 0.12,1.12 ± 0.16,1.09 ± 0.13,1.11 ± 0.15,1.08 ± 0.14,1.03 ± 0.14,1.06 ± 0.16,1.01 ± 0.1
UniProt Q96GX5 and related entries,1.02 ± 0.041,1.01 ± 0.065,1.04 ± 0.077,1 ± 0.073,0.959 ± 0.049,0.971 ± 0.086,1.02 ± 0.065,0.955 ± 0.031
NUP205 (UniProt Q92621),1.06 ± 0.064,1.08 ± 0.1,0.96 ± 0.058,1.03 ± 0.14,1.01 ± 0.085,1.02 ± 0.098,1.03 ± 0.04,1.08 ± 0.097
PXDN (UniProt Q92626),1.07 ± 0.025,1.093 ± 0.01,1.05 ± 0.072,1.06 ± 0.067,1.01 ± 0.036,1.02 ± 0.14,1.06 ± 0.14,1.05 ± 0.13
UniProt Q8WXG6-4|Q8WXG6-5|Q8WXG6-6|Q8WXG6-8,1.05 ± 0.077,1.04 ± 0.053,1.05 ± 0.024,1.02 ± 0.042,1.04 ± 0.018,1.02 ± 0.034,1.07 ± 0.02,1.04 ± 0.03
UniProt Q93084-2,1.01 ± 0.051,1.03 ± 0.036,0.939 ± 0.025,0.944 ± 0.064,0.952 ± 0.073,0.95 ± 0.052,0.934 ± 0.037,0.905 ± 0.059
UniProt Q8WXE0 and related entries,0.966 ± 0.044,0.995 ± 0.053,0.996 ± 0.08,0.973 ± 0.14,0.955 ± 0.097,0.932 ± 0.093,0.94 ± 0.11,0.963 ± 0.078
DHTKD1 (UniProt Q96HY7),1.1 ± 0.1,1.1 ± 0.03,1.05 ± 0.069,1.03 ± 0.06,1.01 ± 0.039,1.05 ± 0.1,1.01 ± 0.057,0.969 ± 0.069
UniProt Q96EP0 and related entries,1.08 ± 0.086,0.98 ± 0.016,1 ± 0.12,0.993 ± 0.13,0.99 ± 0.13,0.94 ± 0.07,0.994 ± 0.069,0.957 ± 0.12
UniProt Q969P0 and related entries,1.02 ± 0.066,1 ± 0.048,0.961 ± 0.07,0.956 ± 0.058,0.932 ± 0.069,0.932 ± 0.049,0.953 ± 0.053,0.919 ± 0.077
VCPIP1 (UniProt Q96JH7),1.02 ± 0.016,1.07 ± 0.036,1.07 ± 0.025,1.08 ± 0.036,1.062 ± 0.0062,1.04 ± 0.039,1.04 ± 0.059,1.04 ± 0.017
EDC3 (UniProt Q96F86),1.01 ± 0.021,1.05 ± 0.022,1.04 ± 0.026,1.03 ± 0.017,1.02 ± 0.015,1.03 ± 0.011,1.02 ± 0.035,1.01 ± 0.038
EMG1 (UniProt Q92979),0.991 ± 0.026,0.978 ± 0.038,0.9176 ± 0.0086,0.969 ± 0.074,1.07 ± 0.035,1.06 ± 0.024,1.04 ± 0.093,1.1 ± 0.028
MRPL24 (UniProt Q96A35),1.13 ± 0.12,1.22 ± 0.23,1.43 ± 0.4,1.59 ± 0.52,1.66 ± 0.67,1.5 ± 0.54,1.55 ± 0.57,1.37 ± 0.52
NTAN1 (UniProt Q96AB6),1.03 ± 0.085,0.99 ± 0.091,0.974 ± 0.058,0.978 ± 0.1,0.936 ± 0.12,0.939 ± 0.13,0.927 ± 0.13,0.855 ± 0.1
UniProt Q96BN2,1.11 ± 0.054,1.05 ± 0.07,1.18 ± 0.056,1.21 ± 0.04,1.3 ± 0.051,1.27 ± 0.099,1.31 ± 0.13,1.29 ± 0.079
FAHD2A (UniProt Q96GK7),1.12 ± 0.13,1.04 ± 0.077,0.951 ± 0.078,0.926 ± 0.08,0.981 ± 0.087,0.981 ± 0.066,0.989 ± 0.13,0.872 ± 0.055
UniProt Q969G3 and related entries,0.861 ± 0.11,0.864 ± 0.082,1.23 ± 0.26,1.22 ± 0.17,1.18 ± 0.21,1.22 ± 0.2,1.19 ± 0.27,1.36 ± 0.41
SMARCC1 (UniProt Q92922),0.991 ± 0.028,1.07 ± 0.027,1.11 ± 0.048,1.14 ± 0.091,1.17 ± 0.14,1.18 ± 0.12,1.22 ± 0.19,1.23 ± 0.2
UniProt Q8WZA9,0.944 ± 0.08,0.906 ± 0.052,0.93 ± 0.088,0.902 ± 0.074,0.895 ± 0.11,0.886 ± 0.072,0.881 ± 0.072,0.906 ± 0.093
UniProt Q96DA6 and related entries,0.894 ± 0.12,0.836 ± 0.074,1.03 ± 0.17,1.04 ± 0.084,1 ± 0.092,1.01 ± 0.042,0.944 ± 0.13,1.09 ± 0.17

# Whole records from above.
# SMARCD1 (UniProt Q96GM5) in the list: NP40-soluble protein abundance (concentration: 0.1mM): 1.06 ± 0.036; NP40-soluble protein abundance (concentration: 0.5mM): 1.11 ± 0.065; NP40-soluble protein abundance (concentration: 1mM): 1.09 ± 0.089; NP40-soluble protein abundance (concentration: 2mM): 1.18 ± 0.16; NP40-soluble protein abundance (concentration: 4mM): 1.18 ± 0.17; NP40-soluble protein abundance (concentration: 6mM): 1.18 ± 0.19; NP40-soluble protein abundance (concentration: 8mM): 1.15 ± 0.18; NP40-soluble protein abundance (concentration: 10mM): 1.16 ± 0.17
# UniProt Q8WXE0 and related entries in the list: NP40-soluble protein abundance (concentration: 0.1mM): 0.966 ± 0.044; NP40-soluble protein abundance (concentration: 0.5mM): 0.995 ± 0.053; NP40-soluble protein abundance (concentration: 1mM): 0.996 ± 0.08; NP40-soluble protein abundance (concentration: 2mM): 0.973 ± 0.14; NP40-soluble protein abundance (concentration: 4mM): 0.955 ± 0.097; NP40-soluble protein abundance (concentration: 6mM): 0.932 ± 0.093; NP40-soluble protein abundance (concentration: 8mM): 0.94 ± 0.11; NP40-soluble protein abundance (concentration: 10mM): 0.963 ± 0.078
